# Results: the supplement of paper PMC8728848
# This is one part of the list.
# B1: rPitB (Streptococcus pneumoniae), A0A0I7U739 (protein)
# chain: MSEIEIINAKKIYHDVPVIENLNITIPKGSLFTLLGASGCGKTTLLRMIAGFNSIKDGEFYFDDTKINNMEPSKRNIGLVFQNYAIFPHLTVRDNVAFGLMQKKVPKEELIQQTNKYLELMQIAQYAD
# What was measured:
# Assay in all cases: glycan array binding signal (z-score within array); higher = stronger binding
# Conditions in all cases: glycan notation: IUPAC condensed, linker removed
# [1] = target: Fuc(a1-2)Gal(b1-4)[Fuc(a1-3)]GlcNAc(b1-2)[Fuc(a1-2)Gal(b1-4)[Fuc(a1-3)]GlcNAc(b1-4)]Man(a1-3)[Fuc(a1-2)Gal(b1-4)[Fuc(a1-3)]GlcNAc(b1-2)Man(a1-6)]Man(b1-4)GlcNAc(b1-4)GlcNAc
# Outline: (§1)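 The binding signal is a Z-score computed within each array. Data were drawn from 3228 arrays in the Consortium for Functional Glycomics database, restricted to those with a known protein sequence. Scores were averaged over arrays of the same protein sequence at different concentrations or buffers, and over linkers, and negative values can be taken as non-binding.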
# [2] = target: Fuc(a1-2)Gal(b1-4)[Fuc(a1-3)]GlcNAc(b1-3)Gal(b1-4)[Fuc(a1-3)]GlcNAc
# Outline: as §1
# [3] = target: Fuc(a1-2)Gal(b1-4)[Fuc(a1-3)]GlcNAc(b1-3)Gal(b1-4)[Fuc(a1-3)]GlcNAc(b1-3)Gal(b1-4)[Fuc(a1-3)]GlcNAc
# Outline: as §1
# [4] = target: Fuc(a1-2)Gal(b1-4)[Fuc(a1-3)]GlcNAc(b1-3)GalNAc
# Outline: as §1
# Fuc(a1-2)Gal6S(b1-4)Glc = target: Fuc(a1-2)Gal6S(b1-4)Glc
# Outline: as §1
# [5] = target: Fuc(a1-2)Gal6S(b1-4)Glc6S
# Outline: as §1
# [6] = target: Fuc(a1-2)Gal6S(b1-4)GlcNAc
# Outline: as §1
# Fuc(a1-2)[Gal(a1-3)]Gal = target: Fuc(a1-2)[Gal(a1-3)]Gal
# Outline: as §1
# [7] = target: Fuc(a1-2)[Gal(a1-3)]Gal(b1-3)GlcNAc
# Outline: as §1
# [8] = target: Fuc(a1-2)[Gal(a1-3)]Gal(b1-3)GlcNAc(b1-2)Man(a1-3)[Fuc(a1-2)[Gal(a1-3)]Gal(b1-3)GlcNAc(b1-2)Man(a1-6)]Man(b1-4)GlcNAc(b1-4)GlcNAc
# Outline: as §1
# [9] = target: Fuc(a1-2)[Gal(a1-3)]Gal(b1-3)GlcNAc(b1-3)GalNAc
# Outline: as §1
# [10] = target: Fuc(a1-2)[Gal(a1-3)]Gal(b1-4)Glc
# Outline: as §1
# [11] = target: Fuc(a1-2)[Gal(a1-3)]Gal(b1-4)GlcNAc
# Outline: as §1
# [12] = target: Fuc(a1-2)[Gal(a1-3)]Gal(b1-4)GlcNAc(b1-2)Man(a1-3)[Fuc(a1-2)[Gal(a1-3)]Gal(b1-4)GlcNAc(b1-2)Man(a1-6)]Man(b1-4)GlcNAc(b1-4)GlcNAc
# Outline: as §1
# [13] = target: Fuc(a1-2)[Gal(a1-3)]Gal(b1-4)GlcNAc(b1-2)Man(a1-3)[Fuc(a1-2)[Gal(a1-3)]Gal(b1-4)GlcNAc(b1-2)Man(a1-6)]Man(b1-4)GlcNAc(b1-4)[Fuc(a1-6)]GlcNAc
# Outline: as §1
# [14] = target: Fuc(a1-2)[Gal(a1-3)]Gal(b1-4)GlcNAc(b1-3)GalNAc
# Outline: as §1
# [15] = target: Fuc(a1-2)[Gal(a1-3)]Gal(b1-4)[Fuc(a1-3)]Glc
# Outline: as §1
# [16] = target: Fuc(a1-2)[Gal(a1-3)]Gal(b1-4)[Fuc(a1-3)]GlcNAc
# Outline: as §1
# [17] = target: Fuc(a1-2)[Gal(a1-3)]Gal(b1-4)[Fuc(a1-3)]GlcNAc(b1-3)GalNAc
# Outline: as §1
# [18] = target: Fuc(a1-2)[Gal(a1-4)]Gal(b1-4)GlcNAc
# Outline: as §1
# [19] = target: Fuc(a1-2)[GalNAc(a1-3)]Gal
# Outline: as §1
# [20] = target: Fuc(a1-2)[GalNAc(a1-3)]Gal(b1-3)GalNAc(a1-3)[Fuc(a1-2)]Gal(b1-4)GlcNAc
# Outline: as §1
# [21] = target: Fuc(a1-2)[GalNAc(a1-3)]Gal(b1-3)GlcNAc
# Outline: as §1
# [22] = target: Fuc(a1-2)[GalNAc(a1-3)]Gal(b1-3)GlcNAc(b1-2)Man(a1-3)[Fuc(a1-2)[GalNAc(a1-3)]Gal(b1-3)GlcNAc(b1-2)Man(a1-6)]Man(b1-4)GlcNAc(b1-4)GlcNAc
# Outline: as §1
# [23] = target: Fuc(a1-2)[GalNAc(a1-3)]Gal(b1-3)GlcNAc(b1-3)GalNAc
# Outline: as §1
# [24] = target: Fuc(a1-2)[GalNAc(a1-3)]Gal(b1-4)Glc
# Outline: as §1
# [25] = target: Fuc(a1-2)[GalNAc(a1-3)]Gal(b1-4)GlcNAc
# Outline: as §1
# [26] = target: Fuc(a1-2)[GalNAc(a1-3)]Gal(b1-4)GlcNAc(b1-2)Man(a1-3)[Fuc(a1-2)[GalNAc(a1-3)]Gal(b1-4)GlcNAc(b1-2)Man(a1-6)]Man(b1-4)GlcNAc(b1-4)GlcNAc
# Outline: as §1
# [27] = target: Fuc(a1-2)[GalNAc(a1-3)]Gal(b1-4)GlcNAc(b1-3)Gal(b1-4)GlcNAc
# Outline: as §1
# [28] = target: Fuc(a1-2)[GalNAc(a1-3)]Gal(b1-4)GlcNAc(b1-3)Gal(b1-4)GlcNAc(b1-3)Gal(b1-4)GlcNAc
# Outline: as §1
binder,measurement,setting,value
B1,glycan array binding signal (z-score),[1],1.33
same,glycan array binding signal (z-score),[2],0.882
same,glycan array binding signal (z-score),[3],0.171
same,glycan array binding signal (z-score),[4],1.42
same,glycan array binding signal (z-score),Fuc(a1-2)Gal6S(b1-4)Glc,-0.271
same,glycan array binding signal (z-score),[5],-0.014
same,glycan array binding signal (z-score),[6],-0.041
same,glycan array binding signal (z-score),Fuc(a1-2)[Gal(a1-3)]Gal,0.024
same,glycan array binding signal (z-score),[7],-0.113
same,glycan array binding signal (z-score),[8],0.062
same,glycan array binding signal (z-score),[9],-0.211
same,glycan array binding signal (z-score),[10],1.11
same,glycan array binding signal (z-score),[11],-0.419
same,glycan array binding signal (z-score),[12],-0.311
same,glycan array binding signal (z-score),[13],0.884
same,glycan array binding signal (z-score),[14],-0.866
same,glycan array binding signal (z-score),[15],0.03
same,glycan array binding signal (z-score),[16],1.26
same,glycan array binding signal (z-score),[17],0.687
same,glycan array binding signal (z-score),[18],-0.108
same,glycan array binding signal (z-score),[19],-0.263
same,glycan array binding signal (z-score),[20],-0.133
same,glycan array binding signal (z-score),[21],0.206
same,glycan array binding signal (z-score),[22],-0.52
same,glycan array binding signal (z-score),[23],0.403
same,glycan array binding signal (z-score),[24],-0.271
same,glycan array binding signal (z-score),[25],-0.509
same,glycan array binding signal (z-score),[26],0.481
same,glycan array binding signal (z-score),[27],-0.609
same,glycan array binding signal (z-score),[28],-0.442

# Retrieved one by one from above:
binder,measurement,setting,value
B1,glycan array binding signal (z-score),[3],0.171
same,glycan array binding signal (z-score),[18],-0.108
